Consider two molecules from PMC11549141.

Results are given in words; binding and its absence hold for the method and conditions named. For some of these results: In cells and extracts the contact can be indirect. For some of these results: Where a sequence is shown, tags or fusion partners need not be part of it.

In assay [1] the target is IDEF1 fused with the GAL4 DNA binding domain (rice). Kind of assay: two-hybrid; SLR1 forms in pGADT7 (GAL4 AD), transcription factors in pGBKT7 (GAL4 BD); S. cerevisiae Y2HGold; screening on SD/-Leu/-Trp/-Ade/-His; three individual colonies.
Assay [2] deals with OSBZ8 fused with the GAL4 DNA binding domain (rice). Described as above.
For assay [3], the target named is OSBZ8 in YFC43 (BiFC) (rice). The assay is described as follows: split reporter; BiFC: SLR1 forms in YFN43, transcription factors in YFC43; co-infiltrated Nicotiana benthamiana leaves with P19; fluorescence microscopy 48-72 h after infiltration.
Assay [4] has as its target IDEF1 in YFC43 (BiFC) (rice). The assay is described as above.

B1: SLENDER RICE1 (SLR1) fused with the GAL4 activation domain (protein, UniProt Q7G7J6 1-625)
chain: MKREYQEAGGSSGGGSSADMGSCKDKVMAGAAGEEEDVDELLAALGYKVRSSDMADVAQKLEQLEMAMGMGGVSAPGAADDGFVSHLATDTVHYNPSDLSSWVESMLSELNAPLPPIPPAPPAARHASTSSTVTGGGGSGFFELPAAADSSSSTYALRPISLPVVATADPSAADSARDTKRMRTGGGSTSSSSSSSSSLGGGASRGSVVEAAPPATQGAAAANAPAVPVVVVDTQEAGIRLVHALLACAEAVQQENFAAAEALVKQIPTLAASQGGAMRKVAAYFGEALARRVYRFRPADSTLLDAAFADLLHAHFYESCPYLKFAHFTANQAILEAFAGCHRVHVVDFGIKQGMQWPALLQALALRPGGPPSFRLTGVGPPQPDETDALQQVGWKLAQFAHTIRVDFQYRGLVAATLADLEPFMLQPEGEADANEEPEVIAVNSVFELHRLLAQPGALEKVLGTVHAVRPRIVTVVEQEANHNSGSFLDRFTESLHYYSTMFDSLEGGSSGQAELSPPAAGGGGGTDQVMSEVYLGRQICNVVACEGAERTERHETLGQWRNRLGRAGFEPVHLGSNAYKQASTLLALFAGGDGYRVEEKEGCLTLGWHTRPLIATSAWRVAAA
In the case of B1, the binding result in assay [1] and in assay [2] was “no binding” in each case.

B2: SLENDER RICE1 (SLR1) in YFN43 (BiFC) (protein, UniProt Q7G7J6 1-625)
chain: MKREYQEAGGSSGGGSSADMGSCKDKVMAGAAGEEEDVDELLAALGYKVRSSDMADVAQKLEQLEMAMGMGGVSAPGAADDGFVSHLATDTVHYNPSDLSSWVESMLSELNAPLPPIPPAPPAARHASTSSTVTGGGGSGFFELPAAADSSSSTYALRPISLPVVATADPSAADSARDTKRMRTGGGSTSSSSSSSSSLGGGASRGSVVEAAPPATQGAAAANAPAVPVVVVDTQEAGIRLVHALLACAEAVQQENFAAAEALVKQIPTLAASQGGAMRKVAAYFGEALARRVYRFRPADSTLLDAAFADLLHAHFYESCPYLKFAHFTANQAILEAFAGCHRVHVVDFGIKQGMQWPALLQALALRPGGPPSFRLTGVGPPQPDETDALQQVGWKLAQFAHTIRVDFQYRGLVAATLADLEPFMLQPEGEADANEEPEVIAVNSVFELHRLLAQPGALEKVLGTVHAVRPRIVTVVEQEANHNSGSFLDRFTESLHYYSTMFDSLEGGSSGQAELSPPAAGGGGGTDQVMSEVYLGRQICNVVACEGAERTERHETLGQWRNRLGRAGFEPVHLGSNAYKQASTLLALFAGGDGYRVEEKEGCLTLGWHTRPLIATSAWRVAAA
As to B2, the binding result in assay [3] and in assay [4] was “no binding” each time.
